A word on the AC50: it is the concentration at which the activity in the assay is half-maximal. A higher AC50 goes with weaker potency.

This is one part of the list. The main result of the screen is listed elsewhere. These columns were measured beside it and carry no call. The list favours compounds with an active or inconclusive main result. The note in brackets gives the kind of curve behind each potency; many fits are weak.

This test in a line: qHTS Assay for Lipid Storage Modulators in Drosophila S3 Cells.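 On cell number change: cells counted by Cell Tracker Red CMTPX staining in the red channel.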 The following applies: BODIPY lipid droplet fluorescence, 18-24 h; for cell number change: measured here: cell count max response, cells fed with added oleic acid. Put shortly: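 Drosophila S3 cells loaded with oleic acid (400 uM, as added) and compounds at several concentrations; lipid droplets imaged by 488-nm laser-scanning cytometry, 500–530 nm intensity and object ratio to cell channel. Percent activity normalized to 20 uM Triacsin C.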

The mark [1] stands for this setting: measured here: cell number channel AC50, cells fed with added oleic acid.
The mark [2] stands for this setting: measured here: lipid fluorescence (Fed channel) AC50, cells fed with added oleic acid.

In the case of `CN(C)CCCN(C(=O)c1cc(-c2cccs2)nc2ccccc12)c1nc2c(F)cccc2s1`, the cell number change was 46%. Further, the AC50 under setting [1] was 11.6 µM [rising, partial curve, poor fit]. Further, under setting [2], the concentration at half-maximal activity (AC50) was 9.2 µM [rising, partial curve, poor fit].

`COc1cc([N+](=O)[O-])ccc1Nc1nc(C)cc(C)n1`: the cell number change was determined as 99.1%. The AC50 under setting [1] was 6.51 µM [falling, single point].

As for `CCN(CC)C(=O)C1CCCN(Cc2ccccc2F)C1` (stereo unspecified), the cell number change was found to be 4.81%. The AC50 under setting [2] was 5.8 µM [falling, full curve].

In the case of `COc1ccc(-c2nc(C#N)c(NCc3ccccc3Cl)o2)cc1OC`, the cell number change was -46.5%. For the same molecule, under setting [1], the AC50 is 29.1 µM [falling, single point].

Consider `CCOc1ccccc1NC(=O)CNC(=O)c1nn(-c2ccc(OC)c(OC)c2)c(=O)c2ccccc12`, for which the cell number change is -38.9%. In addition, under setting [1], the AC50 is 9.2 µM [falling, partial curve, poor fit].

As to `CC[N+](CC)(CCCCS(=O)(=O)[O-])CCNP1(=O)C=C(c2ccccc2)OC(c2ccccc2)=C1`, the cell number change was -0.566%.

As for `Cc1nc(SCC(=O)NCc2ccco2)nc(C)c1C`, the cell number change was -10.9%.

As to `Cc1cc(C)n(CC(O)Cn2c3ccc(Br)cc3c3cc(Br)ccc32)c(=O)n1` (stereo unspecified), the cell number change was -5.13%. Further, the half-maximal activity concentration (AC50) under setting [2] is 29.1 µM [rising, single point].

For `Cc1cc(C)c2nc(NCc3ccccc3O)sc2c1`, the cell number change was -53.2%. The AC50 under setting [1] was 20.6 µM [falling, single point]. Moreover, the AC50 under setting [2] is 20.6 µM [falling, single point].

For `OCCCNC(=S)Nc1ccc2nc(-c3ccccn3)c(-c3ccccn3)nc2c1`, the cell number change is -0.575%. For the same molecule, the AC50 under setting [1] is 1.46 µM [rising, partial curve, poor fit]. The concentration at half-maximal activity (AC50) under setting [2] was 6.51 µM [rising, single point].

Take `O=C(CCN1C(=O)c2ccccc2C1=O)Nc1cccc(S(=O)(=O)NC2=NCCC2)c1`: the cell number change came out at 0.797%.

Regarding `Cc1cccc(NC(=S)NC(=O)c2ccco2)n1`, the cell number change is -36.1%. The AC50 under setting [1] was 4.11 µM [falling, full curve, poor fit].

On to `C/C(=N\NC(=O)c1nnn(-c2nonc2N)c1-c1cccs1)c1ccc(C)cc1`, for which the cell number change worked out at 40.6%. For the same molecule, the AC50 under setting [1] was 8.2 µM [rising, partial curve]. Further, the AC50 under setting [2] was 25.9 µM [rising, partial curve].

`CN(NS(=O)(=O)c1ccc(Cl)cc1)c1cnn(C)c(=O)c1Cl`: the cell number change is -46.1%. Besides, the AC50 under setting [1] was 16.4 µM [falling, single point]. Besides, under setting [2], the concentration at half-maximal activity (AC50) was 25.9 µM [falling, single point].

`COc1ccc(OC)c(C(=O)COC(=O)c2cccnc2Cl)c1`: the cell number change was 7.94%. Further, the half-maximal activity concentration (AC50) under setting [1] was 0.731 µM [rising, single point].

Turning to `Cc1nn2c(-c3ccccc3)nnc2c2ccccc12`, the cell number change is 0.405%. Moreover, under setting [2], the AC50 was 0.461 µM [rising, full curve].

Consider `CC(C)c1ccc(S(=O)(=O)N2CCN(C(=O)[C@@H]3CCCN3C(=O)c3cccs3)CC2)cc1`, for which the cell number change worked out at 14.1%.

As to `CCOc1cc(/C=N/NC(=O)CN2CCCCC2)ccc1OCc1cccc(Cl)c1`, the cell number change was -2.14%. Also, the AC50 under setting [2] is 16.4 µM [rising, single point].

For `O=C(CSc1ccc([N+](=O)[O-])cn1)Nc1ccc(N2CCOCC2)c(Cl)c1`, the cell number change stood at 0.234%. For the same molecule, the AC50 under setting [2] is 0.92 µM [falling, full curve, poor fit].

`O=C(c1ccc2c(=O)n(CCc3ccccc3)c(=O)[nH]c2c1)N1CCN(c2ccc(F)cc2)CC1`: the cell number change is 9.01%. The AC50 under setting [2] is 29.1 µM [falling, single point].

With `COc1cc(C2/C(=C(\O)c3ccc4c(c3)CC(C)O4)C(=O)C(=O)N2CC2CCCO2)cc(OC)c1OC` (stereo unspecified), the AC50 under setting [2] was 1.3 µM [falling, full curve].

As for `Clc1ccc2nc(N3CCNCC3)nc(-c3ccccc3)c2c1`, the cell number change is -32.9%. For the same molecule, the AC50 under setting [1] is 23.1 µM [falling, single point]. Besides, under setting [2], the AC50 is 23.1 µM [falling, single point].

On to `O=C(NCC(=O)N1CCCC1)c1ccc(Cl)cc1`, for which the cell number change is -22.7%. Moreover, under setting [2], the AC50 was 29.1 µM [rising, single point].

`COc1cc(-c2nc3c(c(C)nn3-c3ccccc3)c3cc(OC)c(OC)cc23)ccc1O`: the cell number change is -3.29%. Further, under setting [2], the AC50 was 20.6 µM [falling, partial curve].

With `CCOc1ccccc1NC(=O)Cn1cnc2c(cnn2-c2ccc(C)c(C)c2)c1=O`, the cell number change came to 16.4%. Also, the AC50 under setting [2] was 0.206 µM [rising, full curve, poor fit].

Regarding `CCOC(=O)C1=C(O)/C(=C/c2ccccn2)SC1=Nc1ccc(Cl)cc1`, the cell number change is -19.4%. The AC50 under setting [2] is 29.1 µM [falling, single point].

For the molecule `N#Cc1c(N)nc(N2CCCC2)c(C#N)c1-c1ccc(Cl)cc1`, the cell number change is -23.6%. The AC50 under setting [2] was 1.64 µM [rising, partial curve, poor fit].

Regarding `O=C(CSc1oc(-c2cccs2)nc1S(=O)(=O)c1ccccc1)NC1CCCCC1`, the cell number change came to 35.2%. Also, the AC50 under setting [1] is 0.92 µM [rising, full curve, poor fit]. Also, the AC50 under setting [2] was 0.231 µM [rising, full curve, poor fit].

Take `CCCCNC(=S)N1CCN(C)CC1`: the cell number change was -35.8%. Further, the AC50 under setting [1] was 32.6 µM [falling, single point]. Moreover, the AC50 under setting [2] is 29.1 µM [falling, single point].

For `O=C(CNC(=O)c1ccccc1Br)N/N=C\c1cc([N+](=O)[O-])cc(Br)c1O`, the cell number change worked out at 48.7%.

Take `CCOC(=O)CSc1nc2sc3c(c2c(=O)[nH]1)CCCC3`: the cell number change is -21.1%.

Consider `Cc1cc(N2CCN(Cc3ccccc3)CC2)n2nc(C)c(-c3ccccc3)c2n1`, for which the cell number change is 39.9%. The concentration at half-maximal activity (AC50) under setting [1] is 0.461 µM [rising, full curve, poor fit]. The half-maximal activity concentration (AC50) under setting [2] was 0.651 µM [rising, full curve].

In the case of `COCC(=O)Nc1ccc(Br)cc1`, the cell number change was -22.4%. Moreover, under setting [1], the AC50 is 2.06 µM [falling, partial curve, poor fit]. Besides, the AC50 under setting [2] is 18.4 µM [falling, single point].

As for `CCOC(=O)Cn1c(=NC(=O)c2nc3ccccc3s2)sc2cc(S(N)(=O)=O)ccc21`, the cell number change was -71.7%. The AC50 under setting [1] was 16.4 µM [falling, partial curve].

Regarding `O=c1cnn(Cc2ccc(F)cc2)c2ccccc12`, the cell number change was -12.4%. Further, the AC50 under setting [2] was 6.51 µM [rising, single point].

For the molecule `CCn1c(=O)[nH]c2cc(Cl)c(Cl)cc21`, the cell number change amounted to 30.3%. The AC50 under setting [1] was 29.1 µM [rising, single point]. The AC50 under setting [2] is 29.1 µM [rising, single point].

Source of the values: PubChem BioAssay AID2685 (National Center for Advancing Translational Sciences (NCATS), 2010).
